This is one part of the list.

This assay concerns the target T1, OsSMF1 (Oryza sativa, UniProt Q6ZLB0 1-436).
T1 sequence: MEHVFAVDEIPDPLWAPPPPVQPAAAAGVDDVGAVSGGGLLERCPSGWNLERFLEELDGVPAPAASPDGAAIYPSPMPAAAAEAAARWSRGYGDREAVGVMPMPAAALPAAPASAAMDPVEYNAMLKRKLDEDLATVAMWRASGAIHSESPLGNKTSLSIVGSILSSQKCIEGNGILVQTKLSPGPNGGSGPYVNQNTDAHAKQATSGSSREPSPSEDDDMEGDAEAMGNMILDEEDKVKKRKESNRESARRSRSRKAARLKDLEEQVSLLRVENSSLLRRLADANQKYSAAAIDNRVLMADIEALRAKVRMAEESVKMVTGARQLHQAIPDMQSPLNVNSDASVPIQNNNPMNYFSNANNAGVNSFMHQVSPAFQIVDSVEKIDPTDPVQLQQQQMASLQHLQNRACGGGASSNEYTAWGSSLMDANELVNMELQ
Kind of assay: protein-binding microarray (RPBM); PBS, 2% BSA, 51.3 ng/ul salmon testes DNA, 50 uM zinc acetate, 200 nM TF, 25 C, 1 h; high values mean tight binding. As to conditions: protein: recombinant; tags: N-terminal polyhistidine and DsRed monomer fusion (pET32a); chain copies: 2; label: CyDye5-dUTP incorporated in the synthesized complementary strand; 3' TTTTT single-stranded linker to array surface; dsDNA, one strand shown. In outline:
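Binding signal here means per-feature fluorescence intensity in arbitrary units. The values were read on an Axon 4000B scanner after a custom Agilent array, double-stranded by primer extension with Cy5-dUTP, was incubated with 200 nM protein at 25 °C for 1 h in PBS with 2% BSA, salmon testes DNA and 50 µM zinc acetate, then washed. The proteins were transcription factors with an N-terminal polyhistidine tag and DsRed, expressed in E. coli BL21-CodonPlus and purified on Ni–NTA.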
Regarding “GAATCGACGAGCGCTCCCCTCCCCACGTCGCCCTCCCCGACGGAGTCACCTAGTGCAG”, the binding signal was 3210 fluorescence intensity (a.u.).
As for “ACTTCTACGGTTCTTACTACGTGTAATTAAGTGGCTGACACGGAGTCACCTAGTGCAG”, the binding signal is 3370 fluorescence intensity (a.u.).
As to “GGGACACCTCACCATCATCAGCTTGAGAAATAGGATAGGGCGGAGTCACCTAGTGCAG”, the binding signal was 3930 fluorescence intensity (a.u.).
On to “CCACCGACCCCACCGTCCACCCACGCGTCCGCGTCCCGCACGGAGTCACCTAGTGCAG”, for which the binding signal was 3680 fluorescence intensity (a.u.).
Next, “GCAAAGGGTCCTCTCCTTGCCAAAATTGGTAGACTTTCATCGGAGTCACCTAGTGCAG”: 3600 fluorescence intensity (a.u.).
Take “CGCGCAGGAGGAGTCGGATGCGGATGACGACGAACGAAAACGGAGTCACCTAGTGCAG”: the binding signal was 3570 fluorescence intensity (a.u.).
For “GTGGAGCATGACTCCACTCATCAGGGTTTAAATTCTGGTACGGAGTCACCTAGTGCAG”, the binding signal is 3740 fluorescence intensity (a.u.).
With “CATTGCCAGCGCCCAGTGGGCCACATCACGTGTGTGGGTTCGGAGTCACCTAGTGCAG”, the binding signal is 8480 fluorescence intensity (a.u.).
As for “CAGAGGATCCGCGTCCGCTCATCTGTCATCTCGTTCTTCTCGGAGTCACCTAGTGCAG”, the binding signal is 3760 fluorescence intensity (a.u.).
The value for “CTCGTCTTGTGCCGTTAGCCCGTTGCGCGTGCGTGCGTGGCGGAGTCACCTAGTGCAG” was 6440 fluorescence intensity (a.u.); that for “GAAATACGCACATGGGGTGGGCGTGCTTCTACCATGCCTCCGGAGTCACCTAGTGCAG” was 3280 fluorescence intensity (a.u.).
“TTTCAAACCATTGGCAGGCTTCCACGCATGCATGTCTCTCCGGAGTCACCTAGTGCAG”: the binding signal is 5830 fluorescence intensity (a.u.).
The value for “GATAGTAAAATTATTCCTACGTGAGTATGTATTTACCTTGCGGAGTCACCTAGTGCAG” was 3470 fluorescence intensity (a.u.); that for “AAACCGTCGTGCCAGACTCTTTTGATGACGTGCGGAGCATCGGAGTCACCTAGTGCAG” was 3820 fluorescence intensity (a.u.); that for “AACTCCTCTGCGGCCGCCACGTGTGAGCGCCGCCATCATCCGGAGTCACCTAGTGCAG” was 7630 fluorescence intensity (a.u.).
Next, “GAGCCGTCCAGCTGCCGCGGCCCTCCTCCACCACCGTCCCCGGAGTCACCTAGTGCAG”: 3240 fluorescence intensity (a.u.); “GCACCTACCTACACCTCCCTGCCGACCAACAACCCTGAGCCGGAGTCACCTAGTGCAG”: 28300 fluorescence intensity (a.u.).
As for “TCTTGCCTTCTTGCCCTCCACACTGTCCACGTCTCTCCAACGGAGTCACCTAGTGCAG”, the binding signal was 4650 fluorescence intensity (a.u.).
The value for “TGTTTGTAAAGTAGAGCGTGCATGTGTGCGTTCTTAAGGTCGGAGTCACCTAGTGCAG” was 3590 fluorescence intensity (a.u.).
For “CGTCACGCCCGATTGCCATCCCTACCACCCATACACAATTCGGAGTCACCTAGTGCAG”, the binding signal was 3690 fluorescence intensity (a.u.).
The value for “TCTCACTCTACCACTTGTCTACTCCGCAGCCCAATAACCACGGAGTCACCTAGTGCAG” was 3170 fluorescence intensity (a.u.); that for “AGGATGTGTCAAACGTGAGTTGCCAGTTCACCGCCGCCGACGGAGTCACCTAGTGCAG” was 3520 fluorescence intensity (a.u.); that for “GCAGACGGCGCGGTCGACCCACCGTCTGCCACGTCAGCTTCGGAGTCACCTAGTGCAG” was 37200 fluorescence intensity (a.u.).
Next, “TCCACGTCACCCCATTCTGTCTCCATCATTCGATCTCAATCGGAGTCACCTAGTGCAG”: 10300 fluorescence intensity (a.u.); “CGTTGGCCACATCCGCCCTCCCCTATCAGTGATGTGGAACCGGAGTCACCTAGTGCAG”: 5950 fluorescence intensity (a.u.).
Turning to “TTATGAAGGAAATGTCCGCGTACGCGTGGGCATGCCACGTCGGAGTCACCTAGTGCAG”, the binding signal was 6700 fluorescence intensity (a.u.).
For the sequence “TTGTCACGGGTTTTGGTTAGTCATATTTGATTACTCGTAACGGAGTCACCTAGTGCAG”, the binding signal was 4030 fluorescence intensity (a.u.).
For “CACTATTTTAGCTTATGTGACACCTATGAGACTATGCTTTCGGAGTCACCTAGTGCAG”, the binding signal is 3430 fluorescence intensity (a.u.).
“GCCAACACGCAAGGAAAATGACTTGGCCACAGCCACACACCGGAGTCACCTAGTGCAG”: the binding signal is 4220 fluorescence intensity (a.u.).
Turning to “GGCGACGAACATGTCCTGGTGGTTGTTGTCACGTCATGTCCGGAGTCACCTAGTGCAG”, the binding signal was 6070 fluorescence intensity (a.u.).
As for “CATATAACTTATGTTACATATTTTAATTATTGCTCTAGGTCGGAGTCACCTAGTGCAG”, the binding signal was 3520 fluorescence intensity (a.u.).
Regarding “TCCGTTTCGTATTGTAAAACTTTCTAGTATTGCCCACATTCGGAGTCACCTAGTGCAG”, the binding signal is 19300 fluorescence intensity (a.u.).
For the sequence “CATGGCCACGTCCGCCACCTTGCGGATGCCGGAGGGTAAGCGGAGTCACCTAGTGCAG”, the binding signal is 41400 fluorescence intensity (a.u.).
As for “GCATTGTATAAATAACTATAATCGTTATCATGATAACATTCGGAGTCACCTAGTGCAG”, the binding signal is 32800 fluorescence intensity (a.u.).
On to “GAGTCCATCCCTATCCTGTCCAAGTCACCCAATCATCATCCGGAGTCACCTAGTGCAG”, for which the binding signal was 4240 fluorescence intensity (a.u.).
Take “TCGCATCACGCCACGTCACCCCTCTGACGCGCGCGACCCCCGGAGTCACCTAGTGCAG”: the binding signal was 32000 fluorescence intensity (a.u.).
In the case of “AAGCCGGCCGGCCGGCCAGTCAGTGACATGTATGTTCATGCGGAGTCACCTAGTGCAG”, the binding signal is 3400 fluorescence intensity (a.u.).
Next, “CGTAAGTAAGGTGTACGCGTGTAATCGGATCAGCGGGTAACGGAGTCACCTAGTGCAG”: 3200 fluorescence intensity (a.u.); “AGGCCACACGAGATAGGCTGCAACTGCAAGGGCCTGTGCCCGGAGTCACCTAGTGCAG”: 12700 fluorescence intensity (a.u.).
Regarding “ATTTTACTAGCTGATAAGTAAGCGGAAAGATGAGGCTCTTCGGAGTCACCTAGTGCAG”, the binding signal is 25300 fluorescence intensity (a.u.).
For the sequence “TTGATTATTTCAGTTCATGACTCGGCATAGCACCAGCAAACGGAGTCACCTAGTGCAG”, the binding signal is 5530 fluorescence intensity (a.u.).
In the case of “GTTTGCACTAATTTGACACGAACACTTATTTCACACGTGGCGGAGTCACCTAGTGCAG”, the binding signal is 7940 fluorescence intensity (a.u.).
For the sequence “CCTTTCCGATTACGTGTTGGACCTTGACCCTAGGCCATATCGGAGTCACCTAGTGCAG”, the binding signal was 49700 fluorescence intensity (a.u.).
The value for “CGTGTCGTGGAACACCGTCATCTCCGCGCTGGCGCGGTCGCGGAGTCACCTAGTGCAG” was 5630 fluorescence intensity (a.u.).
For “AATCTTTTGAAGCACCGATTACTCACCTCTCCTCCGACAACGGAGTCACCTAGTGCAG”, the binding signal is 3240 fluorescence intensity (a.u.).
With “GTTTATACCTATAAAGTTTCTATATTAAAAGTTTACGTGTCGGAGTCACCTAGTGCAG”, the binding signal is 3490 fluorescence intensity (a.u.).
The value for “CCATGAAAGTACTCTCACTGACAGGTGGCCCCACACTCTGCGGAGTCACCTAGTGCAG” was 3840 fluorescence intensity (a.u.); that for “TTCTGTACATTTAGCTACCCACGCGTTCAGGCTACAACCTCGGAGTCACCTAGTGCAG” was 3160 fluorescence intensity (a.u.).
The value for “CCCTTTATCGGAACACATATCCTAATGACGTCATCAAGCGCGGAGTCACCTAGTGCAG” was 26100 fluorescence intensity (a.u.).
As to “GGCGAAGAATGCAGACATGACACGGACCCATCGACGCGGGCGGAGTCACCTAGTGCAG”, the binding signal is 3340 fluorescence intensity (a.u.).
As to “GCGAAGCAACATGCTGCTGCTCAAGAGGAGGAAGATGGTGCGGAGTCACCTAGTGCAG”, the binding signal is 3350 fluorescence intensity (a.u.).
For “AACTCGCTCTCCGGGTAGAGTACACGTCACCACCCGACTCCGGAGTCACCTAGTGCAG”, the binding signal is 17100 fluorescence intensity (a.u.).
Next, “AATAGATTTCCTTCACTCGCCCGTGTCTTTAAAACCGGGTCGGAGTCACCTAGTGCAG”: 3390 fluorescence intensity (a.u.); “GCCACATTATTTGGAGACAAACTCAGTGCCGATGTCAGCGCGGAGTCACCTAGTGCAG”: 4600 fluorescence intensity (a.u.).

The values above are taken from PMC7819943, “Rice protein-binding microarrays: a tool to detect cis-acting elements near promoter regions in rice”.
